According to patent US8877683B2, “Substituted pyridines having herbicidal activity” (BASF SE, priority 2010, dated 2014):
Some entries share one result that the patent states for a list of compounds.

How the values were obtained:
Assay in all cases: greenhouse post-emergence herbicidal test
Assay type in all cases: in vivo
[1] = system: SETVI (Setaria viridis); settings: application rate 0.25 kg/ha
[2] = system: AMARE (Amaranthus retroflexus); settings: application rate 0.5 kg/ha
[3] = system: CHEAL (Chenopodium album); settings: application rate 0.5 kg/ha
Description: The culture containers used were plastic flowerpots containing loamy sand with approximately 3.0% of humus as the substrate. The seeds of the test plants were sown separately for each species.
For the post-emergence treatment, the test plants were first grown to a height of 3 to 15 cm, depending on the plant habit, and only then treated with the active ingredients which had been suspended or emulsified in water. For this purpose, the test plants were either sown directly and grown in the same containers, or they were first grown separately as seedlings and transplanted into the test containers a few days prior to treatment.
Depending on the species, the plants were kept at 10-25° C. or 20-35° C. The test period extended over 2 to 4 weeks. During this time, the plants were tended, and their response to the individual treatments was evaluated.
Evaluation was carried out using a scale from 0 to 100. 100 means no emergence of the plants, or complete destruction of at least the aerial moieties, and 0 means no damage, or normal course of growth. A good herbicidal activity is given at values of at least 70 and a very good herbicidal activity is given at values of at least 85. […]

SMILES	herbicidal activity against SETVI [1]	herbicidal activity against AMARE [2]	herbicidal activity against CHEAL [3]
O=S1(=O)Cc2cccnc2C(O)=C1c1c(Cl)cccc1Cl [I-13]	very good (a very good herbicidal activity is given at values of at least 85)	–	–
CC(C)(C)C(=O)OC1=C(c2ccccc2C(F)(F)F)S(=O)(=O)C(C)(C)c2cccnc21 [I-18, 2,2-Dimethyl-propionic acid 5,5-dimethyl-6,6-dioxo-7-(2-trifluoromethyl-phenyl)-5,6-dihydro-thiopyrano[4,3-b]pyridin-8-yl ester]	–	very good (a very good herbicidal activity is given at values of at least 85)	very good (a very good herbicidal activity is given at values of at least 85)
